The source of these data is article PMC3304006 (Journal of the American Chemical Society, 2012).

The target of test [1] is Lys-D-Ala-D-Ala peptide fused to T4 lysozyme wt* L164A (Enterobacteria phage T4, UniProt P00720, C54T/C97A/L164A). Briefly: biochemical. In kind it is binding.
Test [2] concerns the target Lys-D-Ala-D-Ala peptide fused to ubiquitin1–75 (Homo sapiens, UniProt P0CG47). Put plainly: SPR binding to ubiquitin carrier protein-peptide fusion. For orientation: In SPR one partner is held on a chip, and binding of the other changes the refractive index at the surface.

Molecules are shown by their SMILES.

Consider `CN[C@H](CC(C)C)C(=O)N[C@H]1C(=O)N[C@@H](CC(N)=O)C(=O)N[C@H]2C(=O)N[C@H]3C(=O)N[C@H](C(=O)N[C@H](C(=O)O)c4cc(O)cc(O)c4-c4cc3ccc4O)[C@H](O)c3ccc(c(Cl)c3)Oc3cc2cc(c3O[C@@H]2O[C@H](CO)[C@@H](O)[C@H](O)[C@H]2O[C@H]2C[C@](C)(N)[C@H](O)[C@H](C)O2)Oc2ccc(cc2Cl)[C@H]1O` [Vancomycin], for which the equilibrium dissociation constant (Kd) (in general, the concentration at which binding is half-saturated) in test [1] is 3.6 ± 0.7 µM; in test [2] it was 3.6 ± 0.2 µM.
